The target in assay [1] is endogenous GSK-3β (HEK293T) (human (endogenous in HEK293T)) (UniProt P49841). Kind of assay: co-IP; HEK293T co-transfected with GFP-Axin or empty vector and with GFP-ALDOC, GFP-ALDOB or empty vector; lysates precipitated with goat anti-Axin antibody or control unimmuned serum; blots with anti-GFP, anti-GSK-3β, anti-tubulin.
Assay [2] concerns the target FLAG-GSK-3β (Glycogen synthase kinase 3β) (UniProt P49841). Kind of assay: co-IP; HEK293T co-transfected with FLAG-GSK-3β and GFP-ALDOC or GFP-ALDOB (also increasing amounts of GFP-ALDOC DNA); lysates precipitated with anti-FLAG M2-agarose, 2 h at 4°C, washed four times with lysis buffer; Western blot. A general note: In western blotting, separated proteins are transferred to a membrane and probed.

By UniProt entry, the sequences of proteins in these tests, tags left out.
UniProt P49841: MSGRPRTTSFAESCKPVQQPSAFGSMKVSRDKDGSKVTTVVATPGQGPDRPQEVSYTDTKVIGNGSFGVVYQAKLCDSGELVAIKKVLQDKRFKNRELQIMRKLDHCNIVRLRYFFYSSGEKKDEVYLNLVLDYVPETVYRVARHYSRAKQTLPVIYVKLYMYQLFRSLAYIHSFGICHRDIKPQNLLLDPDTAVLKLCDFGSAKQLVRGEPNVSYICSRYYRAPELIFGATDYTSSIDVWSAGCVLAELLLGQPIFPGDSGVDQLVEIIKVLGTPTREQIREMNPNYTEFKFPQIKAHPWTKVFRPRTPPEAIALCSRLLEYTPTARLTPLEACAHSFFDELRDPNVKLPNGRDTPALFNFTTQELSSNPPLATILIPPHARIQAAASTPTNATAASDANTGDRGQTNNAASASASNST
UniProt Q9WV60: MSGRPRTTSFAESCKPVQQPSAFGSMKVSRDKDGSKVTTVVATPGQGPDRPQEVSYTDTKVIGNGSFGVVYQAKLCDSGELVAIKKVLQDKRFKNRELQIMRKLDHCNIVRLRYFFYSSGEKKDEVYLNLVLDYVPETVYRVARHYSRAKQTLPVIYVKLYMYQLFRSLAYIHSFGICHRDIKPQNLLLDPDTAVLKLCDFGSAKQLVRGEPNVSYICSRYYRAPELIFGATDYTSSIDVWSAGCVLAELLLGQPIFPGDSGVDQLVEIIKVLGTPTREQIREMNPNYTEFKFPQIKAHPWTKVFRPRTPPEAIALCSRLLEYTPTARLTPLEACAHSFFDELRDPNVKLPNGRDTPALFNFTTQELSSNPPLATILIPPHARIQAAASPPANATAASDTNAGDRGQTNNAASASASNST

The target of assay [3] is endogenous GSK-3β (mouse brain) (mouse (endogenous in mouse brain)) (UniProt Q9WV60). Kind of assay: co-IP; mouse brain extracts homogenised in RIPA buffer; rabbit anti-GSK-3β antibody or control unimmuned serum, protein A/G agarose; blots with anti-GSK-3β, anti-ALDOC, anti-ALDOB.

These are yes or no findings as the source states them, for the method shown. In cells and extracts the contact can be indirect. Some results given as binding are weak or reduced against the parent protein; the word gives no strength. For some assays here: Sequences can lack the tags named with a protein.

From paper PMC4094682 come the findings set out here.

B1: GFP-ALDOC (Aldolase C, fructose bisphosphate) (enzyme, UniProt P09972 1-364)
chain: MPHSYPALSAEQKKELSDIALRIVAPGKGILAADESVGSMAKRLSQIGVENTEENRRLYRQVLFSADDRVKKCIGGVIFFHETLYQKDDNGVPFVRTIQDKGIVVGIKVDKGVVPLAGTDGETTTQGLDGLSERCAQYKKDGADFAKWRCVLKISERTPSALAILENANVLARYASICQQNGIVPIVEPEILPDGDHDLKRCQYVTEKVLAAVYKALSDHHVYLEGTLLKPNMVTPGHACPIKYTPEEIAMATVTALRRTVPPAVPGVTFLSGGQSEEEASFNLNAINRCPLPRPWALTFSYGRALQASALNAWRGQRDNAGAATEEFIKRAEVNGLAAQGKYEGSGEDGGAAAQSLYIANHAY
On to B1, for which the binding entry in assay [1] and in assay [2] was “binds” in each case.

B2: endogenous ALDOB (mouse brain) (enzyme, UniProt Q91Y97 1-364)
chain: MAHRFPALTPEQKKELSEIAQRIVANGKGILAADESVGTMGNRLQRIKVENTEENRRQFRELLFSVDNSISQSIGGVILFHETLYQKDSQGNLFRNVLKEKGIVVGIKLDQGGAPLAGTNKETTIQGLDGLSERCAQYKKDGVDFGKWRAVLRIADQCPSSLAIQENANALARYASICQQNGLVPIVEPEVLPDGDHDLEHCQYVSEKVLAAVYKALNDHHVYLEGTLLKPNMVTAGHACTKKYTPEQVAMATVTALHRTVPAAVPGICFLSGGMSEEDATLNLNAINRCPLPRPWKLSFSYGRALQASALAAWGGKAANKKATQEAFMKRAMANCQAAQGQYVHTGSSGAAATQSLFTASYTY
With B2, the binding entry in assay [3] was “binds”.

B3: GFP-ALDOB (Aldolase B) (enzyme, UniProt P05062 1-364)
chain: MAHRFPALTQEQKKELSEIAQSIVANGKGILAADESVGTMGNRLQRIKVENTEENRRQFREILFSVDSSINQSIGGVILFHETLYQKDSQGKLFRNILKEKGIVVGIKLDQGGAPLAGTNKETTIQGLDGLSERCAQYKKDGVDFGKWRAVLRIADQCPSSLAIQENANALARYASICQQNGLVPIVEPEVIPDGDHDLEHCQYVTEKVLAAVYKALNDHHVYLEGTLLKPNMVTAGHACTKKYTPEQVAMATVTALHRTVPAAVPGICFLSGGMSEEDATLNLNAINLCPLPKPWKLSFSYGRALQASALAAWGGKAANKEATQEAFMKRAMANCQAAKGQYVHTGSSGAASTQSLFTACYTY
On to B3, for which the binding entry in assay [1] and in assay [2] was “binds” throughout.
